Results are given in words; binding and its absence hold for the method and conditions named. In cells and extracts the contact can be indirect. Some results given as binding are weak or reduced against the parent protein; the word gives no strength.

Amino acid sequences for entries named in this document (tags omitted).
UniProt P67775: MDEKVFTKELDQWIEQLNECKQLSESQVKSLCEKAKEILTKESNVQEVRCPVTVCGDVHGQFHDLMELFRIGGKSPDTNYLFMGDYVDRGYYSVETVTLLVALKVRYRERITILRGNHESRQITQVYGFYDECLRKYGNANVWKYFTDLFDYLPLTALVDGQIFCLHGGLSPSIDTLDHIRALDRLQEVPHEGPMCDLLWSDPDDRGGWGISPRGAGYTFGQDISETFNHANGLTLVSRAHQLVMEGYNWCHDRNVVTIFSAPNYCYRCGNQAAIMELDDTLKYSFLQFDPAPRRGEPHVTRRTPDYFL

In the experiment the target is protein phosphatase 2 catalytic subunit alpha (PPP2CA) (human (endogenous in MDA-MB-231 and MCF-7)) (UniProt P67775). The experiment is described as follows: co-IP; anti-PPP2CA antibody conjugated protein G agarose beads on MDA-MB-231 and MCF-7 cells; Western blotting; normal IgG as control.

B1: Protein kinase C ζ (PKCζ) (enzyme, UniProt Q05513 1-592)
chain: MPSRTGPKMEGSGGRVRLKAHYGGDIFITSVDAATTFEELCEEVRDMCRLHQQHPLTLKWVDSEGDPCTVSSQMELEEAFRLARQCRDEGLIIHVFPSTPEQPGLPCPGEDKSIYRRGARRWRKLYRANGHLFQAKRFNRRAYCGQCSERIWGLARQGYRCINCKLLVHKRCHGLVPLTCRKHMDSVMPSQEPPVDDKNEDADLPSEETDGIAYISSSRKHDSIKDDSEDLKPVIDGMDGIKISQGLGLQDFDLIRVIGRGSYAKVLLVRLKKNDQIYAMKVVKKELVHDDEDIDWVQTEKHVFEQASSNPFLVGLHSCFQTTSRLFLVIEYVNGGDLMFHMQRQRKLPEEHARFYAAEICIALNFLHERGIIYRDLKLDNVLLDADGHIKLTDYGMCKEGLGPGDTTSTFCGTPNYIAPEILRGEEYGFSVDWWALGVLMFEMMAGRSPFDIITDNPDMNTEDYLFQVILEKPIRIPRFLSVKASHVLKGFLNKDPKERLGCRPQTGFSDIKSHAFFRSIDWDLLEKKQALPPFQPQITDDYGLDNFDTQFTSEPVQLTPDDEDAIKRIDQSEFEGFEYINPLLLSTEESV
On to B1, for which the binding entry was “binds”.

For the origin of these results see paper PMC5828088.
